According to PubChem BioAssay AID256 (DTP/NCI, 2004):
The list is a part of this screen's results and no random one: it is rich in T/C values a quarter to a half above the control, in often repeated tests (any T/C) and in doses without a T/C. Other doses and runs of a compound stand elsewhere. T/C: endpoint of the treated group in % of that of the vehicle group. Some entries give survivors of the animals treated and no T/C: the source files T/C as zero there, which appears to mark a toxic dose or a test without result, not a measured value. Some survivor counts are full or nearly so, which does not show that the dose was tolerated: the source hardly ever lists a survival T/C far under the control, and the zero likely stands for such cases as well. Survivors were counted at the toxicity check, usually on the fifth day, unless a day is given; later deaths do not show. Schedules are NCI's codes, taken here to give the interval after Q, in days (D) or hours (H), and the number of doses after X. Some schedules carry Z or #; the key to these is not given. For survival time, the PubChem record calls one and a half times the control and up active, and a quarter to a half above the control has no call in these data; cut-offs in other NCI protocols can differ. Some doses were run more than once; the results are listed from low to high. Some T/C values carry the count of animals alive at the toxicity check (mostly the fifth day); where none is given, no animal had died by that day.

Tested on: CD2F1 mice, L1210 leukemia ip, survival T/C
Experiment: NCI In Vivo Anticancer Drug Screen. Data for tumor model L1210 Leukemia (intraperitoneal) in CD2F1 (CDF1) mice
Details: higher T/C = longer survival
Method in brief: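 Compound-dosed mice with transplantable tumor versus matched vehicle controls; endpoint ratio T/C reported.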

[1] = T/C endpoint: mean survival time, dose: 200.0 mg/kg/injection, schedule: Q01DX001 (ip), vehicle: saline with Tween-80
[2] = T/C endpoint: mean survival time, dose: 200.0 mg/kg/injection, schedule: Q04DX003 (ip), vehicle: saline with Tween-80
[3] = T/C endpoint: mean survival time, dose: 400.0 mg/kg/injection, schedule: Q04DX003 (ip), vehicle: saline with Tween-80
[4] = T/C endpoint: mean survival time, dose: 400.0 mg/kg/injection, schedule: Q01DX001 (ip), vehicle: saline with Tween-80
[5] = T/C endpoint: mean survival time, dose: 200.0 mg/kg/injection, schedule: Q01DX009 (ip), vehicle: saline with Tween-80
[6] = T/C endpoint: mean survival time, dose: 6.25 mg/kg/injection, schedule: Q01DX009 (ip), vehicle: saline with Tween-80

Structure (SMILES): CCCCOc1nc(-c2ccncc2)nc(N(C)C)n1
- survivor count (T/C endpoint: mean survival time, dose: 200.0 mg/kg/injection, schedule: Q01DX002 (ip), vehicle: saline): 0 of 3
- survivor count (T/C endpoint: mean survival time, dose: 400.0 mg/kg/injection, schedule: Q01DX002 (ip), vehicle: saline): 0 of 3

Structure (SMILES): [N-]=[N+]=CC(=O)NCC(=O)NCCO
- T/C (T/C endpoint: mean survival time, dose: 400.0 mg/kg/injection, schedule: Q01DX009 (ip), vehicle: other): 128 and 129 % of control
- T/C (T/C endpoint: mean survival time, dose: 600.0 mg/kg/injection, schedule: Q01DX009 (ip), vehicle: other): 135 % of control
- T/C (T/C endpoint: mean survival time, dose: 800.0 mg/kg/injection, schedule: Q01DX009 (ip), vehicle: other): 135 and 136 % of control

Structure (SMILES): COc1ccc(OC)c(/C=C(/C#N)C(N)=O)c1
- survivor count (T/C endpoint: mean survival time, dose: 100.0 mg/kg/injection, schedule: Q01DX001 (ip), vehicle: saline with Tween-80): 6 of 6

Structure (SMILES): CCCCCCCCCCCCCCCCCCSc1ccc(Br)cc1
- survivor count [1]: 6 of 6

Structure (SMILES): [Cl][Mn][Cl]
- survivor count (T/C endpoint: median survival time, dose: 128.0 mg/kg/injection, schedule: Q01DX009 (ip), vehicle: saline): 0 of 6

Structure (SMILES): COc1cc(NS(C)(=O)=O)ccc1Nc1c2ccc([N+](=O)[O-])cc2nc2c(C)cccc12
- T/C (T/C endpoint: mean survival time, dose: 3.75 mg/kg/injection, schedule: Q01DX009 (ip), vehicle: saline with Tween-80): 147 % of control
- survivor count (T/C endpoint: mean survival time, dose: 15.0 mg/kg/injection, schedule: Q01DX009 (ip), vehicle: saline with Tween-80): 6 of 6
- survivor count (T/C endpoint: mean survival time, dose: 150.0 mg/kg/injection, schedule: Q04DX003 (ip), vehicle: saline): 0 of 6

Structure (SMILES): CCN(CC)CCN1C(=O)c2cccc3cccc(c23)C1=O
- survivor count (T/C endpoint: mean survival time, dose: 200.0 mg/kg/injection, schedule: Q04DX003 (ip), vehicle: saline): 0 of 6

Structure (SMILES): Cc1cc(CCl)c(C)cc1CCl
- survivor count [2]: 2 of 3
- survivor count [3]: 0 of 3

Structure (SMILES): COc1ccc(NC(=O)Nc2ccccc2C)c(Cl)c1
- survivor count (T/C endpoint: mean survival time, dose: 200.0 mg/kg/injection, schedule: Q04DX002 (ip), vehicle: saline with Tween-80): 3 of 3

Structure (SMILES): O=S(=O)(/C(=C\c1ccccc1)c1ccccc1)c1ccccc1
- survivor count (T/C endpoint: mean survival time, dose: 100.0 mg/kg/injection, schedule: Q01DX009 (ip), vehicle: saline): 6 of 6

Structure (SMILES): CC(NC(=O)C(CSC(c1ccccc1)(c1ccccc1)c1ccccc1)NC(c1ccccc1)(c1ccccc1)c1ccccc1)C(=O)O (stereo unspecified)
- survivor count (T/C endpoint: mean survival time, dose: 75.0 mg/kg/injection, schedule: Q01DX001 (ip), vehicle: saline): 5 of 6
- survivor count (T/C endpoint: mean survival time, dose: 300.0 mg/kg/injection, schedule: Q01DX001 (ip), vehicle: saline): 1 of 6

Structure (SMILES): O=C1C2=C(Nc3cc([N+](=O)[O-])ccc3N2)OC1c1ccccn1 (stereo unspecified)
- survivor count (T/C endpoint: median survival time, dose: 200.0 mg/kg/injection, schedule: Q01DX005 (ip), vehicle: Klucel (hydroxypropylcellulose) (HPC)): 2 of 6

Structure (SMILES): CC1=CC(c2ccccc2)(c2ccccc2)c2ccccc21
- survivor count [4]: 6 of 6

Structure (SMILES): COC(=O)c1cc2c3ccccc3ncc2c2ccccc12
- survivor count (T/C endpoint: mean survival time, dose: 100.0 mg/kg/injection, schedule: Q04DX003 (ip), vehicle: saline with Tween-80): 6 of 6

Structure (SMILES): [CH3][Sn]1([CH3])[O]C2C(CO)OC(n3ccc(N)nc3=O)C2[O]1 (stereo unspecified)
- survivor count (T/C endpoint: mean survival time, dose: 100.0 mg/kg/injection, schedule: Q01DX005 (ip), vehicle: other): 0 of 6
- survivor count (T/C endpoint: mean survival time, dose: 200.0 mg/kg/injection, schedule: Q01DX005 (ip), vehicle: other): 0 of 6

Structure (SMILES): Oc1ccccc1C=NCC1CCCC[N-]1.Oc1ccccc1C=NCC1CCCC[N-]1.[Ni+2] (stereo unspecified)
- T/C [1]: 138 % of control
- survivor count [4]: 2 of 6

Structure (SMILES): C(=N\N=C\C1CCc2ccccc21)/c1ccco1 (stereo unspecified)
- survivor count [5]: 6 of 6

Structure (SMILES): Cn1c(=O)c2c(ncn2C)n(C)c1=O.[Cl][Pt]([Cl])[Cl]
- survivor count (T/C endpoint: mean survival time, dose: 200.0 mg/kg/injection, schedule: Q04DX003 (ip), vehicle: water): 3 of 6

Structure (SMILES): Cn1cc(C(O)CN2CCCCC2)c2ccccc21 (stereo unspecified)
- survivor count [2]: 0 of 3
- survivor count [3]: 0 of 3

Structure (SMILES): CC(C)(C)OC(=O)CCC(NC(=O)OCc1ccccc1)C(=O)O (stereo unspecified)
- survivor count [2]: 3 of 6
- survivor count (T/C endpoint: mean survival time, dose: 400.0 mg/kg/injection, schedule: Q01DX001 (ip), vehicle: saline sonified): 1 of 6

Structure (SMILES): O=NN(CCF)C(=O)NC1CCC(NC(=O)N(CCF)N=O)CC1 (stereo unspecified)
- T/C [6]: 138 % of control
- survivor count (T/C endpoint: mean survival time, dose: 100.0 mg/kg/injection, schedule: Q01DX009 (ip), vehicle: saline with Tween-80): 3 of 6
- survivor count [5]: 1 of 6

Structure (SMILES): CC(=O)NC1=CC(OC(C)=O)C(COC(C)=O)OC1n1cnc2c1c(=O)n(C)c(=O)n2C (stereo unspecified)
- survivor count (T/C endpoint: mean survival time, dose: 100.0 mg/kg/injection, schedule: Q01DX005 (ip), vehicle: distilled water + Tween-80): 6 of 6

Structure (SMILES): CS(=O)(=O)OCCN(CCOS(C)(=O)=O)c1cccc([N+](=O)[O-])c1
- T/C (T/C endpoint: mean survival time, dose: 30.0 mg/kg/injection, schedule: Q01DX010 (ip), vehicle: saline): 131 % of control
- T/C (T/C endpoint: mean survival time, dose: 100.0 mg/kg/injection, schedule: Q01DX010 (ip), vehicle: saline): 148 % of control
- T/C (T/C endpoint: mean survival time, dose: 512.0 mg/kg/injection, schedule: Q01DX001 (ip), vehicle: saline): 136 % of control

Structure (SMILES): C1OCC2[CH2][Hg][S][Hg][CH2]C1O2
- survivor count (T/C endpoint: mean survival time, dose: 16.0 mg/kg/injection, schedule: Q01DX015 (ip), vehicle: saline): 0 of 6
- survivor count (T/C endpoint: mean survival time, dose: 32.0 mg/kg/injection, schedule: Q01DX015 (ip), vehicle: saline): 0 of 6

Structure (SMILES): Cc1ccccc1CN1C2=NCCN2C(=O)C2=C1CCN(S(=O)(=O)c1ccc(Cl)c(S(N)(=O)=O)c1)C2
- survivor count (T/C endpoint: median survival time, dose: 200.0 mg/kg/injection, schedule: Q01DX009 (ip), vehicle: saline): 6 of 6

Structure (SMILES): CNNCc1ccc(C(=O)NC(N)=O)cc1
- T/C (T/C endpoint: mean survival time, dose: 32.0 mg/kg/injection, schedule: Q03HX024 (ip), vehicle: saline): 133 % of control [9 of 10 alive]
- T/C (T/C endpoint: mean survival time, dose: 64.0 mg/kg/injection, schedule: Q01DX008 (ip), vehicle: saline): 128 % of control
- T/C (T/C endpoint: mean survival time, dose: 64.0 mg/kg/injection, schedule: Q01DX009 (oral), vehicle: saline): 132 % of control
- T/C (T/C endpoint: mean survival time, dose: 64.0 mg/kg/injection, schedule: Q03HX016 (ip), vehicle: saline): 127 % of control
- T/C (T/C endpoint: mean survival time, dose: 64.0 mg/kg/injection, schedule: Q03HX024 (ip), vehicle: saline): 135 % of control
- T/C (T/C endpoint: mean survival time, dose: 100.0 mg/kg/injection, schedule: Q01DX Z (ip), vehicle: saline): 129 % of control
- T/C (T/C endpoint: mean survival time, dose: 128.0 mg/kg/injection, schedule: Q01DX008 (ip), vehicle: saline): 131 % of control
- T/C (T/C endpoint: mean survival time, dose: 128.0 mg/kg/injection, schedule: Q03HX008 (ip), vehicle: saline): 126 % of control
- T/C (T/C endpoint: mean survival time, dose: 128.0 mg/kg/injection, schedule: Q03HX016 (ip), vehicle: saline): 134 % of control
- T/C (T/C endpoint: mean survival time, dose: 148.0 mg/kg/injection, schedule: Q01DX Z (ip), vehicle: saline): 132 % of control
- T/C (T/C endpoint: mean survival time, dose: 256.0 mg/kg/injection, schedule: Q01DX005 (iv), vehicle: saline): 126 % of control
- T/C (T/C endpoint: mean survival time, dose: 256.0 mg/kg/injection, schedule: Q01DX008 (ip), vehicle: saline): 139 % of control
- survivor count (T/C endpoint: mean survival time, dose: 500.0 mg/kg/injection, schedule: Q01DX Z (ip), vehicle: saline): 0 of 6
- T/C (T/C endpoint: mean survival time, dose: 512.0 mg/kg/injection, schedule: Q01DX001 (oral), vehicle: saline): 131 % of control [9 of 10 alive]
- survivor count (T/C endpoint: mean survival time, dose: 512.0 mg/kg/injection, schedule: Q01DX008 (ip), vehicle: saline): 4 of 10
- survivor count (T/C endpoint: mean survival time, dose: 512.0 mg/kg/injection, schedule: Q01DX009 (oral), vehicle: saline): 9 of 10
- T/C (T/C endpoint: mean survival time, dose: 512.0 mg/kg/injection, schedule: Q04DX003 (ip), vehicle: saline): 126 % of control
- survivor count (T/C endpoint: mean survival time, dose: 1024.0 mg/kg/injection, schedule: Q01DX001 (ip), vehicle: saline): 0 of 10
- survivor count (T/C endpoint: mean survival time, dose: 1024.0 mg/kg/injection, schedule: Q01DX001 (iv), vehicle: saline): 0 of 10
- survivor count (T/C endpoint: mean survival time, dose: 1024.0 mg/kg/injection, schedule: Q01DX001 (oral), vehicle: saline): 4 of 10
- survivor count (T/C endpoint: mean survival time, dose: 1024.0 mg/kg/injection, schedule: Q08DX002 (ip), vehicle: saline): 0 of 10

Structure (SMILES): CCCCN1C(=O)C=CC1=O
- survivor count [6]: 0 of 3
- survivor count (T/C endpoint: mean survival time, dose: 12.5 mg/kg/injection, schedule: Q01DX009 (ip), vehicle: saline with Tween-80): 0 of 3
- survivor count (T/C endpoint: mean survival time, dose: 25.0 mg/kg/injection, schedule: Q01DX009 (ip), vehicle: saline with Tween-80): 0 of 3

Structure (SMILES): Cn1c(=O)[nH]c2c(-c3ccccc3)n[nH]c2c1=O
- survivor count (T/C endpoint: median survival time, dose: 50.0 mg/kg/injection, schedule: Q04DX003 (ip), vehicle: saline with Tween-80): 3 of 3
